# According to publication PMC12560144:
# Protein sequences, listed by entry. Tags and fused reporters are not part of them. Lines headed by an entry give the natural chain unless they say otherwise; changes in a name come on top. Chains listed by the source or under a name are the forms on record and can include a tag or linker.
# 2xStrep-TRIP12 (Q14669, form named): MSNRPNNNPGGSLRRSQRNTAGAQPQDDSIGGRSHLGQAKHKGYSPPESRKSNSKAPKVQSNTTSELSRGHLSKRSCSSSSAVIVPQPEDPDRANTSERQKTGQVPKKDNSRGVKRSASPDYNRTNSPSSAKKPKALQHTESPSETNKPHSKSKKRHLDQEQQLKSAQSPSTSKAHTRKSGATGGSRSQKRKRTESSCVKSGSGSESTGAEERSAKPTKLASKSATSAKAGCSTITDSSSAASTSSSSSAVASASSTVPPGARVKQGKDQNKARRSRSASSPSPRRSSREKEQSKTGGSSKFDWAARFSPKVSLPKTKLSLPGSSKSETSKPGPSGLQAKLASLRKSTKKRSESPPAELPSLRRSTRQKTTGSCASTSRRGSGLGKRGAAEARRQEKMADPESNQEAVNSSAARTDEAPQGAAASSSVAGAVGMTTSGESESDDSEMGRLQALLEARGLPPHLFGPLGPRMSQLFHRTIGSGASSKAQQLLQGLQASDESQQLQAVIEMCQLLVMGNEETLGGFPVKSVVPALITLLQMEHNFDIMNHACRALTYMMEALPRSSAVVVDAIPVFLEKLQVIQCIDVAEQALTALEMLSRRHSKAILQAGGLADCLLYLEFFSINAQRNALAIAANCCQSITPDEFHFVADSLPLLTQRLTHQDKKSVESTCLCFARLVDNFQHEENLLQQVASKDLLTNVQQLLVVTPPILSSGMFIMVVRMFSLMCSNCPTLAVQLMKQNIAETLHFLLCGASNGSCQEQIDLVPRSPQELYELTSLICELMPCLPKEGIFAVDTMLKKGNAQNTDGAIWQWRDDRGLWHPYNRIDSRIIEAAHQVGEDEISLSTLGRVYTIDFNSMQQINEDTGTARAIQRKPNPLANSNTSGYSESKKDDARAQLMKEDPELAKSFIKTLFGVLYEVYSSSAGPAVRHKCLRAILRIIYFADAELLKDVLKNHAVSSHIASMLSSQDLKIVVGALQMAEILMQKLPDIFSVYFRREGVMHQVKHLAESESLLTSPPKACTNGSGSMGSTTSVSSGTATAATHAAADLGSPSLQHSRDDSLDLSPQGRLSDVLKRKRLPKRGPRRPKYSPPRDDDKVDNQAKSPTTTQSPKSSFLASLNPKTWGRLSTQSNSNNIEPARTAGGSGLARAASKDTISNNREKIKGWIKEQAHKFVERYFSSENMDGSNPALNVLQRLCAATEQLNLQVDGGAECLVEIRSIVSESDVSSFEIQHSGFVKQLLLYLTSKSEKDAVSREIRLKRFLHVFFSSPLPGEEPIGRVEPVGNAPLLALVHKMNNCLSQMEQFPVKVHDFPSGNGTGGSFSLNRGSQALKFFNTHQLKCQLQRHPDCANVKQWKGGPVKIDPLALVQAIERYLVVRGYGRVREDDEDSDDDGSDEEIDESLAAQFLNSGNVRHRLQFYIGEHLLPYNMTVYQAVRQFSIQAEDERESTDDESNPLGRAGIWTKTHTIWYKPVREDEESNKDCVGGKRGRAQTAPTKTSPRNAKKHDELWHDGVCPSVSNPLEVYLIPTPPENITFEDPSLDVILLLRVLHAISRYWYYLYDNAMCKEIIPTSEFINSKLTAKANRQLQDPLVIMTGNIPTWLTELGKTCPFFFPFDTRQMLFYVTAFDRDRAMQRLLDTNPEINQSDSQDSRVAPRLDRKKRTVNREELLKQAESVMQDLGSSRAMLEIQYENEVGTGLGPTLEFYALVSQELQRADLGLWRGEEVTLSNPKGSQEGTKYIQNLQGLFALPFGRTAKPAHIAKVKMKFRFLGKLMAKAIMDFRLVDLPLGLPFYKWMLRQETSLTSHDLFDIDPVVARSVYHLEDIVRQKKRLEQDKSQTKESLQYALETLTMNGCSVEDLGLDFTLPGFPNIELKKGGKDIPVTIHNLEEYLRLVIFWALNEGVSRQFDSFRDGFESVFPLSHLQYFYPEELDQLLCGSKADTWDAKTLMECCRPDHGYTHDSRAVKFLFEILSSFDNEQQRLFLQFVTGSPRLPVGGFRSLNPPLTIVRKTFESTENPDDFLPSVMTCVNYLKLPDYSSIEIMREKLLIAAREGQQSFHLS
# UniProt G5E870: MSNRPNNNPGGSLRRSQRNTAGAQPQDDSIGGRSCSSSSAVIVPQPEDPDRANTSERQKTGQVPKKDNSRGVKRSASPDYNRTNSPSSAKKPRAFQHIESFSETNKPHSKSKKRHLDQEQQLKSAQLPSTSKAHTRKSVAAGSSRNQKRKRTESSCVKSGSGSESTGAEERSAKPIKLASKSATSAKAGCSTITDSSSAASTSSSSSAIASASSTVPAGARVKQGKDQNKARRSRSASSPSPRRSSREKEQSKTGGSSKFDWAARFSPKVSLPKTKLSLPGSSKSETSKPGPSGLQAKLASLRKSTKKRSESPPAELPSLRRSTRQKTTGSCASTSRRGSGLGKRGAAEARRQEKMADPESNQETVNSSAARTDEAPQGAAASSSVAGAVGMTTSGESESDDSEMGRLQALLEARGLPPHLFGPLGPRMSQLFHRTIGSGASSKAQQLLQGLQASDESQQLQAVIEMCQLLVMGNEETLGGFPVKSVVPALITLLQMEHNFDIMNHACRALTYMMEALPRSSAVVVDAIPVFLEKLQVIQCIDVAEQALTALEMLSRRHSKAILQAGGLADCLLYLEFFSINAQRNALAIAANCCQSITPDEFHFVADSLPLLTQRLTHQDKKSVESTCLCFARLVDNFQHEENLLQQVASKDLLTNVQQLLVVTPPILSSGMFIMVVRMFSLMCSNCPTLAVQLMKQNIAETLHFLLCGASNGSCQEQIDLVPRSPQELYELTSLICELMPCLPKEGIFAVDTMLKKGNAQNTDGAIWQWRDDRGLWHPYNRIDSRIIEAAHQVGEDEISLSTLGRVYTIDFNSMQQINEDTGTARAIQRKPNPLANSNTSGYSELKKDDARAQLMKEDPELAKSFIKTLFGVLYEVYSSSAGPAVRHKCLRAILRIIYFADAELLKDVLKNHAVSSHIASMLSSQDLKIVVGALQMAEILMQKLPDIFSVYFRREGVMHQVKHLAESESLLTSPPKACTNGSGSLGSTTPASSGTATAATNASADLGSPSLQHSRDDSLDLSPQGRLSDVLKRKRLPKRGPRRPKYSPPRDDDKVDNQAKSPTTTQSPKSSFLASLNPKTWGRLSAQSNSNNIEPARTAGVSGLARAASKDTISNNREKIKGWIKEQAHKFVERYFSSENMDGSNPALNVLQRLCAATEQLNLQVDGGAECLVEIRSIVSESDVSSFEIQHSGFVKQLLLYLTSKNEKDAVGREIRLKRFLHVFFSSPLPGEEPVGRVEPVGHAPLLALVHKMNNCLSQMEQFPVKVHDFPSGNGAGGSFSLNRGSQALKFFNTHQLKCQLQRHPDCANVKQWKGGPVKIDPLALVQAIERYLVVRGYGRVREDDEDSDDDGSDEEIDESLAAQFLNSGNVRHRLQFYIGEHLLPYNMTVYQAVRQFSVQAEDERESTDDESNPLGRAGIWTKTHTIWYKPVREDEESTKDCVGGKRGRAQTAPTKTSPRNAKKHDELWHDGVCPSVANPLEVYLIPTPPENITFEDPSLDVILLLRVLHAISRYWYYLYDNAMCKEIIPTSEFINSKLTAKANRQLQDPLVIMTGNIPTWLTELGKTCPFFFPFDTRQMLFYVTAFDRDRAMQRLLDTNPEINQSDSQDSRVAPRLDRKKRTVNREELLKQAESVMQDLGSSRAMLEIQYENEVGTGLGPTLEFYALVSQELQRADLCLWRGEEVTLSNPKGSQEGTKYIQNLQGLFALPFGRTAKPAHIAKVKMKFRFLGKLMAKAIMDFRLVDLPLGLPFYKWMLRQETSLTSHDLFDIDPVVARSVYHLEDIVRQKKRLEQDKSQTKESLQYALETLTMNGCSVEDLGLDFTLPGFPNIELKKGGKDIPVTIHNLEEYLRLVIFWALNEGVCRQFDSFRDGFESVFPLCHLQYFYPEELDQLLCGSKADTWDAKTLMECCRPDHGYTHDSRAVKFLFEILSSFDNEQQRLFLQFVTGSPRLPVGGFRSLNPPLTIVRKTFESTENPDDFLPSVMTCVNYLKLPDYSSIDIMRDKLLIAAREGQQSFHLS
# These are yes or no findings as the source states them, for the method shown. For some assays here: Binding seen in cells or lysates may run through a third protein. Some binding calls cover weakened binding; strength is not graded here.
# Assays:
# [1] = target: 2xStrep-TRIP12 (human) (UniProt Q14669); experiment: pull-down; 2xStrep-TRIP12 immobilized on strep resin, incubated with one recombinant protein at 500 nM; 20 mM HEPES pH 7.5, 150 mM NaCl, 0.2% Nonidet P-40; 4°C, 30 minutes, five washes; western blotting; both purified
# [2] = target: 2xStrep-CUL3 (in C2C12 myoblasts) (human) (UniProt Q13618); experiment: co-IP; 2xStrep-CUL3 stably expressed in C2C12 myoblasts, purified on Strep-Tactin XT resin from lysate (4°C, 1 h); with or without MLN4924; with or without sodium arsenite; western blotting
Substance,binding [1],binding [2]
CUL3/RBX1 (from UniProt Q13618 1-768; P62877 1-108) (complex),binds,–
"TRIP12 (endogenous, C2C12 myoblasts) (from UniProt G5E870 1-2025) (enzyme)",–,binds
